Laboratory results published in PMC5133449, “Peripheral self-reactivity regulates antigen-specific CD8 T-cell responses and cell division under physiological conditions” (Open Biology, 2016).

Test system: Rop7-II TCR
Assay: SPR affinity of H-2 L^d-peptide complexes for immobilised recombinant Rop7-II TCR (BIAcore 3000)
Type: binding, mouse
Conditions: for lower affinity of Rop7-II TCR than Rop7-I TCR: Rop7-II versus Rop7-I TCR, peptide in H-2 L^d

| Sequence | lower affinity of Rop7-II TCR than Rop7-I TCR | lower affinity of Rop7-II TCR than Rop7-III TCR (Rop7-II versus Rop7-III TCR, H-2 L^d-IPAAAGRFF) [fold] |
| --- | --- | --- |
| IPAAAGRFF [peptide … derived from the Rop7 protein of Toxoplasma gondii] | 25 fold | 3 |
| IPANAGRFF | approx. twofold | – |
